Taken from: PubChem BioAssay AID504784 (Drosophila RNAi Screening Center, 2011)
The screen tested about 17,000 reagents; shown is a random part of those that have a named target and a result. 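Each column is one replicate's B-score; the combined score over replicates was not deposited, so single values may mislead.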 A plus sign joins genes that one reagent is predicted to hit. Not all columns of the deposit are shown. Reagent sequences are not shown.

- Assay: 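Fly genes whose silencing alters how much lipid cells keep in droplets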 (primary screen)
- System: Drosophila Kc167 embryonic cells
- Knock-down reagent: long dsRNA against Drosophila genes, about 250 ng dsRNA per well
- Duration: 4 days
- Treatment: cells fed 400 µM oleic acid bound to BSA
- Measurement: 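Cells imaged and segmented; ratio of lipid droplet area to nuclear area, log-transformed, then normalised as a B-score over the screen; higher means more stored lipid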
- Scale: droplet/nuclear area B-score: higher = more stored lipid (overstorage)

no.	gene knocked down	dsRNA	droplet/nuclear area B-score, replicate 1
1	CG30379	DRSC05070	-1.67
2	CG32847	DRSC22901	0.0359
3	U3-55K (U3 small nuclear riboprotein factor 55K)	DRSC05982	1.5
4	Argk1 (Arginine kinase 1)	DRSC08959	0.614
5	Argk1 (Arginine kinase 1)	DRSC09668	0.0166
6	Argk1 (Arginine kinase 1)	DRSC10460	-2.43
7	Argk1 (Arginine kinase 1)	DRSC21558	2.41
8	Argk1 (Arginine kinase 1)	DRSC22665	0.91
9	resilin	DRSC05627	0.173
10	resilin	DRSC06595	0.00723
11	Mct1 (Monocarboxylate transporter 1)	DRSC18681	-0.187
12	CG9240	DRSC20177	2.96
13	CG13047	DRSC09928	-0.701
14	Mdr65 (Multi drug resistance 65)	DRSC11220	0.00422
15	Pex1 (Peroxin 1)	DRSC11358	-0.682
16	FeCH (Ferrochelatase)	DRSC16948	0.406
17	ms(3)K81 (male sterile (3) K81)	DRSC14746	0.0892
18	CG9164	DRSC19087	-0.898
19	CG9164	DRSC20162	-0.551
20	HSPC300 (Haematopoietic stem/progenitor cell protein 300)	DRSC22880	2.59
21	ken (ken and barbie)	DRSC04696	4.64
22	ken (ken and barbie)	DRSC23196	-0.105
23	bocks (bocksbeutel)	DRSC16489	-0.0739
24	CG13405	DRSC08310	-0.0376
25	Npc2a (Niemann-Pick type C-2a)	DRSC00698	-0.182
26	CG3277	DRSC00588	-1.91
27	ATPsynepsilonL (ATP synthase, epsilon subunit-like)	DRSC14548	-0.0401
28	Trpgamma (Transient receptor potential cation channel gamma)	DRSC03626	1.76
29	Trim9 (Tripartite motif containing 9)	DRSC02242	0.559
30	CG14764	DRSC05072	-1.19
31	CG14764	DRSC06498	0.377
32	CG14764	DRSC06844	0.275
33	LManIII (Lysosomal alpha-mannosidase III)	DRSC03221	0.449
34	CG7950 + Rpp14a	DRSC16353	0.608
35	CG17801	DRSC15273	-0.224
36	CG13315	DRSC09986	-0.519
37	Acbp3 (Acyl-CoA binding protein 3)	DRSC11022	1.16
38	CG9297	DRSC16469	6.92
39	mei-217 + mei-218	DRSC20349	1.38
40	mRpS33 (mitochondrial ribosomal protein S33)	DRSC14239	1.98
41	CG31953 (retired record) + gkt	DRSC00709	-0.731
42	Pph13 (PvuII-PstI homology 13)	DRSC00775	2.49
43	Pph13 (PvuII-PstI homology 13)	DRSC23162	0.0255
44	ninaE (neither inactivation nor afterpotential E)	DRSC17014	-0.0563
45	Nipped-B	DRSC07815	-0.106
46	stol (stolid)	DRSC01956	-0.986
47	CG9921	DRSC20220	-0.585
48	CG14591	DRSC04868	1.48
49	CG9117	DRSC03141	0.786
50	CG32170	DRSC09452	0.657
51	Mkp + CG34140	DRSC08585	-1.75
52	Pdcd4 (Programmed cell death 4)	DRSC19360	2.2
53	uncNacbeta	DRSC00326	-0.564
54	AdamTS-A (ADAM metallopeptidase with thrombospondin type 1 motif A)	DRSC14992	-0.0631
55	AdamTS-A (ADAM metallopeptidase with thrombospondin type 1 motif A)	DRSC15966	0.359
56	Cks30A (Cyclin-dependent kinase subunit 30A)	DRSC03292	-0.219
57	CG8910	DRSC07414	3.74
58	CG15651	DRSC04242	1.72
59	CR33317 (pseudo)	DRSC02653	0.112
60	CG12680	DRSC17871	-1.15
61	Tailor	DRSC12526	-0.0411
62	CG1503	DRSC20512	-0.243
63	CG11786	DRSC14389	1.01
64	CG30431	DRSC04902	-0.111
65	CG30431	DRSC04904	-1.02
66	rig (rigor mortis)	DRSC06053	-0.451
67	rig (rigor mortis)	DRSC06400	0.247
68	sit (stuck in traffic)	DRSC15760	0.524
69	colt (congested-like trachea)	DRSC00808	1.24
70	Gar1 (Gar1 ribonucleoprotein)	DRSC04441	0.0805
71	CG15464 (retired record)	DRSC18047	0.176
72	CG15464 (retired record)	DRSC22086	1.03
73	CG12511	DRSC02171	0.695
74	CG12729	DRSC17884	-0.15
75	put (punt)	DRSC17039	0.976
76	CG6435	DRSC06987	-0.141
77	Rsod (Related to Sod)	DRSC15424	-0.0892
78	Hexo2 (Hexosaminidase 2)	DRSC18671	0.681
79	Zip71B (Zinc/iron regulated transporter-related protein 71B)	DRSC09686	-1.02
80	CG11475	DRSC04113	-0.618
81	CG31800	DRSC22525	-1.02
82	MED26 (Mediator complex subunit 26)	DRSC17126	-0.00559
83	MED26 (Mediator complex subunit 26)	DRSC17147	0.392
84	MED26 (Mediator complex subunit 26)	DRSC17148	-1.49
